Record: PubChem BioAssay AID1259405 (NCATS, 2018)

- Test: 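Silenced genes that increase secreted GFP made by CHO cells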 (primary screen)
- Cells: Chinese hamster CHO-K1 ovary cells with stable secreted eGFP expression
- Knock-down reagent: single siRNA against mouse genes, 0.8 pmol siRNA per well (2 µl of 400 nM stock)
- Time to read-out: 3 days
- Detection: 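Percent of the per-plate non-targeting control median for intracellular GFP per well by laser scanning cytometry and for cell viability by ATP luminescence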
- Direction: GFP, % of control: higher = more GFP per well, higher productivity
- Rule for the call: 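Called active when intracellular GFP, relative to negative control, is at or above 120%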
Here is one part, drawn at random, of about 50,000 reagents. About 4,000 of all reagents (8%) were called active. 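Mouse siRNA library applied to hamster cells; one well for each siRNA.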 Reagents against one gene are numbered here. Not all columns of the deposit are shown.

GFP, % of control, by gene and reagent
Sostdc1 (sclerostin domain containing 1): #1 40.1 inactive; #2 160 active; #3 86.1 inactive
Otoa (otoancorin): #1 63.3 inactive; #2 96.6 inactive; #3 84.4 inactive
Plk4 (polo like kinase 4): #1 74.9 inactive
Fam228a (family with sequence similarity 228, member A): #1 97.7 inactive; #2 71.6 inactive; #3 34.9 inactive
Atp6v0e2 (ATPase, H+ transporting, lysosomal V0 subunit E2): #1 65.4 inactive; #2 119 inactive; #3 67.4 inactive
Hnrnpc (heterogeneous nuclear ribonucleoprotein C): #1 88.6 inactive; #2 102 inactive; #3 105 inactive
Psat1 (phosphoserine aminotransferase 1): #1 69.6 inactive; #2 78.6 inactive; #3 96.1 inactive
Hormad1 (HORMA domain containing 1): #1 35.4 inactive; #2 63.9 inactive; #3 72.6 inactive
Dnajc27 (DnaJ heat shock protein family (Hsp40) member C27): #1 85.3 inactive; #2 74 inactive; #3 116 inactive
Kcnrg (potassium channel regulator): #1 75.3 inactive; #2 102 inactive; #3 60.6 inactive
Mccc1 (methylcrotonoyl-Coenzyme A carboxylase 1 (alpha)): #1 82.6 inactive; #2 83.4 inactive; #3 95.7 inactive
Krt72 (keratin 72): #1 50 inactive; #2 57.5 inactive; #3 75.1 inactive

Entries listed above called active, once more:
GFP, % of control, by gene and reagent
Sostdc1 (sclerostin domain containing 1): #2 160 active
